# Assay results reported in PubChem BioAssay AID2685 (National Center for Advancing Translational Sciences (NCATS), 2010).
# The other results are listed elsewhere or left out. Further columns of the screen follow, without active or inactive calls. Most of these compounds were active or inconclusive in the main read-out, so they are no random draw. The note in brackets gives the kind of curve behind each potency; many fits are weak.
# Assay: qHTS Assay for Lipid Storage Modulators in Drosophila S3 Cells;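 on cell number change: cells counted by Cell Tracker Red CMTPX staining in the red channel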
# Settings: BODIPY lipid droplet fluorescence, 18-24 h; for cell number change: measured here: cell count max response, cells fed with added oleic acid
# Method in brief: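 Drosophila S3 cells loaded with oleic acid (400 uM, as added) and compounds at several concentrations; lipid droplets imaged by 488-nm laser-scanning cytometry, 500–530 nm intensity and object ratio to cell channel. Percent activity normalized to 20 uM Triacsin C.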
# [1] = measured here: cell number channel AC50, cells fed with added oleic acid
# [2] = measured here: lipid fluorescence (Fed channel) AC50, cells fed with added oleic acid
Structure (SMILES),cell number change,AC50 [1],AC50 [2]
CC(=O)c1cnc(Nc2nc(C)c3ccccc3n2)nc1C,55.4%,"10.3 µM [rising, partial curve]","6.51 µM [rising, single point]"
O=C(Nc1ccc(N2CCOCC2)cc1)c1cc2c(s1)CCCCC2,22.3%,,"6.51 µM [rising, single point]"
COc1ccc(CCNC(=O)C2=CC=CN3CCS(=O)(=O)N=C23)cc1,-14.3%,,
CCOC(=O)c1cccc(NC(=O)CSc2nnnn2C)c1,-27.7%,,"0.0651 µM [falling, full curve, poor fit]"
CC(C)CC1NC(=O)N(CC(=O)Nc2ccc3c(c2)OCCO3)C1=O (centres undefined),11.1%,,"0.517 µM [rising, full curve, poor fit]"
Fc1ccc(Nc2nc(NCc3ccco3)c3ccccc3n2)cc1,-60.1%,"29.1 µM [falling, single point]",
Cc1c(O)ccc(C(=O)COc2ccc(F)cc2)c1O,-41.8%,"10.3 µM [falling, partial curve]","2.06 µM [falling, full curve]"
O=c1[nH]cc(N2CCCCCC2)c(=O)[nH]1,-30.9%,"29.1 µM [falling, single point]","29.1 µM [falling, single point]"
COc1ccccc1NC(=O)c1ccc(NC(=O)CSc2nc(N)cc(=O)[nH]2)cc1,-8.43%,,"1.16 µM [rising, partial curve, poor fit]"
CCOC(=O)Nc1ccc(S(=O)(=O)NC2CCCCC2)cc1,12%,,
CCOc1[nH]n(-c2ccccc2)c(=O)c1C=Nc1ccc(C)cc1,65.6%,,
CC(Sc1nnc(-c2ccco2)n1C)C(=O)NC1CCCC1 (centres undefined),-36.1%,"29.1 µM [falling, single point]",
COc1ccccc1-c1coc2c(CN3CCN(C)CC3)c(O)ccc2c1=O,-0.0737%,,"20.6 µM [falling, partial curve]"
COc1ccccc1CNC(=O)C(=O)NCC1OCCCN1S(=O)(=O)c1ccc(F)cc1C (centres undefined),36.1%,"25.9 µM [rising, single point]","18.4 µM [rising, single point]"
CC(C)Sc1nnc(SCC(=O)N(C)C2CCS(=O)(=O)C2)s1 (centres undefined),-7.89%,,"6.51 µM [falling, single point]"
COc1ccc(C2c3[nH]c4ccccc4c3CCN2C(=O)c2cn3ccccc3n2)c(F)c1 (centres undefined),-29.4%,,"14.6 µM [falling, partial curve]"
COC(=O)c1sccc1NC(=O)c1cc2c(s1)CCCC2,-23.6%,,

# Part of the list above, limited to AC50 [2]:
Structure (SMILES)	AC50 [2]
CCOC(=O)c1cccc(NC(=O)CSc2nnnn2C)c1	0.0651 µM [falling, full curve, poor fit]
CC(C)CC1NC(=O)N(CC(=O)Nc2ccc3c(c2)OCCO3)C1=O (centres undefined)	0.517 µM [rising, full curve, poor fit]
